No constants are given. Whether binding was seen depends on the method and setting. Some entries that bind do so weakly or less than the wild type.
Molecular target: T1, Cap32, beta-subunit of capping protein Cap32/34 from Dictyostelium discoideum (Dictyostelium discoideum) (UniProt P13021)
T1 sequence: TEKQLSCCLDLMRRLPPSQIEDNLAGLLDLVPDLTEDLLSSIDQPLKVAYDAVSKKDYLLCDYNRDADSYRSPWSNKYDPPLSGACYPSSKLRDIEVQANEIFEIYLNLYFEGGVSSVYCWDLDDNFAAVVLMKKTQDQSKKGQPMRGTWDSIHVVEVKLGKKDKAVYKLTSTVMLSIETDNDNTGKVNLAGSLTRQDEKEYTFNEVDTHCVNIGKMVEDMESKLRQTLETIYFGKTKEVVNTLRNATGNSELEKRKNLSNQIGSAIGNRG
Assay: crystal structure; co-expressed and co-purified Cap32/34 heterodimer; hanging-drop vapour diffusion, 100 mM Hepes pH 7.5, 17% (w/v) PEG 8000, 20°C; refined to 2.2 Å, space group P4(1), two molecules in the asymmetric unit; both purified

binding: binds
B1: Cap34, alpha-subunit of capping protein Cap32/34 from Dictyostelium discoideum (protein, UniProt P13022 1-281)
chain: MASNQELVQIATNFLLNAPPCEFMEVVSDVRALLPSESLLNASAGSTFREYNTSQMVSVQTSKGSALITKEGEISNNEYLDPKNKQVITYDHIKQEVTGERSASGEIEQDIEQYRAAFDEEATKYCNEYYPNGVSAVYGTKVSEGIKITVCISTCIYKPNAFYSGRWRSVWTCTFKPGSGNVTSNGKVQVNVHYFEDGNVQLNTVTQKQTTSPSADAQSTAVNAFKAIGKAELNLHTALDNNYSTMGDTTFKALRRALPINRTKINWQKVKNFKIANELNK

— PMC3472329
